# The other results are listed elsewhere or left out.
# Legend:
# Assay in all cases: glycan array binding signal (z-score within array); higher = stronger binding
# Conditions in all cases: glycan notation: IUPAC condensed, linker removed
# Neu5Ac(a2-8)Neu5Ac = molecular target: Neu5Ac(a2-8)Neu5Ac
# In short: (§1)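 Columns mapping to the same glycan were averaged after glycan names were converted to IUPAC-condensed notation. The data come from 3228 arrays in the Consortium for Functional Glycomics database, limited to those with an available protein sequence. Binding is reported as a within-array Z-score averaged across arrays of one protein sequence and across linkers.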
# [1] = molecular target: Neu5Ac(a2-8)Neu5Ac(a2-3)Gal(b1-3)GalNAc(b1-4)[Neu5Ac(a2-3)]Gal(b1-4)Glc
# In short: as §1
# [2] = molecular target: Neu5Ac(a2-8)Neu5Ac(a2-3)Gal(b1-3)GalNAc(b1-4)[Neu5Ac(a2-8)Neu5Ac(a2-3)]Gal(b1-4)Glc
# In short: as §1
# [3] = molecular target: Neu5Ac(a2-8)Neu5Ac(a2-3)Gal(b1-4)Glc
# In short: as §1
# [4] = molecular target: Neu5Ac(a2-8)Neu5Ac(a2-3)Gal(b1-4)GlcNAc
# In short: as §1
# [5] = molecular target: Neu5Ac(a2-8)Neu5Ac(a2-3)[Gal(b1-3)GalNAc(b1-4)]Gal(b1-4)Glc
# In short: as §1
# [6] = molecular target: Neu5Ac(a2-8)Neu5Ac(a2-3)[GalNAc(b1-4)]Gal(b1-4)Glc
# In short: as §1
# [7] = molecular target: Neu5Ac(a2-8)Neu5Ac(a2-8)Neu5Ac
# In short: as §1
# [8] = molecular target: Neu5Ac(a2-8)Neu5Ac(a2-8)Neu5Ac(a2-3)Gal(b1-4)Glc
# In short: as §1
# [9] = molecular target: Neu5Ac(a2-8)Neu5Ac(a2-8)Neu5Ac(a2-3)[Gal(b1-3)GalNAc(b1-4)]Gal(b1-4)Glc
# In short: as §1
# [10] = molecular target: Neu5Ac(a2-8)Neu5Ac(a2-8)Neu5Ac(a2-3)[GalNAc(b1-4)]Gal(b1-4)Glc
# In short: as §1
# [11] = molecular target: Neu5Ac(a2-8)Neu5Ac(a2-8)Neu5Ac(a2-8)Neu5Ac(a2-3)[GalNAc(b1-4)]Gal(b1-4)Glc
# In short: as §1
# [12] = molecular target: Neu5Ac(a2-8)Neu5Gc(a2-3)Gal(b1-4)GlcNAc
# In short: as §1
# [13] = molecular target: Neu5Ac(b2-6)Gal(b1-4)GlcNAc
# In short: as §1
# Neu5Ac(b2-6)GalNAc = molecular target: Neu5Ac(b2-6)GalNAc
# In short: as §1
# [14] = molecular target: Neu5Ac9Ac(a2-3)Gal(b1-3)GlcNAc
# In short: as §1
# [15] = molecular target: Neu5Ac9Ac(a2-3)Gal(b1-4)GlcNAc
# In short: as §1
# [16] = molecular target: Neu5Ac9Ac(a2-6)Gal(b1-4)GlcNAc
# In short: as §1
# [17] = molecular target: Neu5Gc(a2-3)Gal(b1-3)GlcNAc
# In short: as §1
# [18] = molecular target: Neu5Gc(a2-3)Gal(b1-3)[Fuc(a1-4)]GlcNAc
# In short: as §1
# Neu5Gc(a2-3)Gal(b1-4)Glc = molecular target: Neu5Gc(a2-3)Gal(b1-4)Glc
# In short: as §1
# [19] = molecular target: Neu5Gc(a2-3)Gal(b1-4)GlcNAc
# In short: as §1
# [20] = molecular target: Neu5Gc(a2-3)Gal(b1-4)GlcNAc(b1-3)Gal(b1-4)GlcNAc(b1-2)Man(a1-3)[Neu5Gc(a2-3)Gal(b1-4)GlcNAc(b1-3)Gal(b1-4)GlcNAc(b1-2)Man(a1-6)]Man(b1-4)GlcNAc(b1-4)GlcNAc
# In short: as §1
# [21] = molecular target: Neu5Gc(a2-3)Gal(b1-4)[Fuc(a1-3)]GlcNAc
# In short: as §1
# [22] = molecular target: Neu5Gc(a2-6)Gal(b1-4)GlcNAc
# In short: as §1
# Neu5Gc(a2-6)GalNAc = molecular target: Neu5Gc(a2-6)GalNAc
# In short: as §1
# [23] = molecular target: Neu5Gc(a2-8)Neu5Ac(a2-3)Gal(b1-4)GlcNAc
# In short: as §1
# [24] = molecular target: Neu5Gc(a2-8)Neu5Gc(a2-3)Gal(b1-4)GlcNAc
# In short: as §1
# [25] = molecular target: Neu5Gc(a2-8)Neu5Gc(a2-3)Gal(b1-4)GlcNAc(b1-3)Gal(b1-4)GlcNAc
# In short: as §1
# [26] = molecular target: Neu5Gc(a2-8)Neu5Gc(a2-6)Gal(b1-4)GlcNAc
# In short: as §1
# [27] = molecular target: Neu5Gc(b2-6)Gal(b1-4)GlcNAc
# In short: as §1
binder,measurement,setting,value
LlpB (Pseudomonas fluorescens) (protein) MGSSHHHHHHSSGLVPRGSHMASSGFRIILFNSANNGTAILPPRNCLVAGQYLESPSKRYKLILEADGNLRLYDNGVPIWVADSSVPYTYVDNRPNTNLVTCFYMQGSAFLVDRVGSRTWATIGDWIDGAADRAYLQVQDDGNVVVVDGVPRWARFGFTPAALPNRGVFYPDHGTGPLPSFPVWSWTF,glycan array binding signal (z-score),Neu5Ac(a2-8)Neu5Ac,0.018
same,glycan array binding signal (z-score),[1],2.81
same,glycan array binding signal (z-score),[2],1.61
same,glycan array binding signal (z-score),[3],-0.364
same,glycan array binding signal (z-score),[4],-1.02
same,glycan array binding signal (z-score),[5],-1.03
same,glycan array binding signal (z-score),[6],-0.424
same,glycan array binding signal (z-score),[7],-0.564
same,glycan array binding signal (z-score),[8],1.01
same,glycan array binding signal (z-score),[9],1.6
same,glycan array binding signal (z-score),[10],-1.26
same,glycan array binding signal (z-score),[11],-0.352
same,glycan array binding signal (z-score),[12],0.37
same,glycan array binding signal (z-score),[13],-0.881
same,glycan array binding signal (z-score),Neu5Ac(b2-6)GalNAc,-1.02
same,glycan array binding signal (z-score),[14],-0.008
same,glycan array binding signal (z-score),[15],0.332
same,glycan array binding signal (z-score),[16],0.437
same,glycan array binding signal (z-score),[17],-0.538
same,glycan array binding signal (z-score),[18],0.078
same,glycan array binding signal (z-score),Neu5Gc(a2-3)Gal(b1-4)Glc,0.956
same,glycan array binding signal (z-score),[19],-1.45
same,glycan array binding signal (z-score),[20],1.36
same,glycan array binding signal (z-score),[21],-1.51
same,glycan array binding signal (z-score),[22],0.183
same,glycan array binding signal (z-score),Neu5Gc(a2-6)GalNAc,-0.448
same,glycan array binding signal (z-score),[23],0.652
same,glycan array binding signal (z-score),[24],-1.49
same,glycan array binding signal (z-score),[25],-1.27
same,glycan array binding signal (z-score),[26],0.062
same,glycan array binding signal (z-score),[27],0.672

# Reformatted: results already given
binder | measurement | setting | value
LlpB (Pseudomonas fluorescens) (protein) MGSSHHHHHHSSGLVPRGSHMASSGFRIILFNSANNGTAILPPRNCLVAGQYLESPSKRYKLILEADGNLRLYDNGVPIWVADSSVPYTYVDNRPNTNLVTCFYMQGSAFLVDRVGSRTWATIGDWIDGAADRAYLQVQDDGNVVVVDGVPRWARFGFTPAALPNRGVFYPDHGTGPLPSFPVWSWTF | glycan array binding signal (z-score) | [17] | -0.538
same | glycan array binding signal (z-score) | [18] | 0.078

# Reference: the supplement of paper PMC8728848
